We go through three sequences from patent publication US20080254465.

By UniProt entry, the sequences of proteins in these tests, tags left out. Residues count along the entry.
UniProt P08047, 2-785: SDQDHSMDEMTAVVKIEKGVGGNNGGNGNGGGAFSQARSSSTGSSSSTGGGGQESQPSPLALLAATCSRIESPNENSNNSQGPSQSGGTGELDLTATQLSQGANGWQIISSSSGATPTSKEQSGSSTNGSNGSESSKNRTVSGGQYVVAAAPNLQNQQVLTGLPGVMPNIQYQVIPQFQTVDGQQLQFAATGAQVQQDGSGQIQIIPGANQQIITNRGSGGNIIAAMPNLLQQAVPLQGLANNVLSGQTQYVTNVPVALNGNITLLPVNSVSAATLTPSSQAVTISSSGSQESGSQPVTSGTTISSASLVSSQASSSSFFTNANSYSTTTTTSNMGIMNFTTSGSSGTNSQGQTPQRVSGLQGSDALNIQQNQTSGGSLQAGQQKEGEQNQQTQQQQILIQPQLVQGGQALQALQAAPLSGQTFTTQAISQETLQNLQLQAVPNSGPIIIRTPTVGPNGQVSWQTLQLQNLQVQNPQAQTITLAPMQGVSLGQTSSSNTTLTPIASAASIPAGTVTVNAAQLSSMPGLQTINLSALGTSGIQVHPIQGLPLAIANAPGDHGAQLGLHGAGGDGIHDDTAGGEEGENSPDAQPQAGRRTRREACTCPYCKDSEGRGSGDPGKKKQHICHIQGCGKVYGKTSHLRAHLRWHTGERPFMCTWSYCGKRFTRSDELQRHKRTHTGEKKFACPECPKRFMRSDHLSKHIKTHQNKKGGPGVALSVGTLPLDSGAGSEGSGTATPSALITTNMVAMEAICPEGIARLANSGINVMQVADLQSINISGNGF

Data set [1] concerns NF-kB (HeLa nuclear extract) (Homo sapiens). In words: footprint. Particulars: protein in an extract, protein details: HeLa nuclear extract, Promega, label: 5'-RuBpy, 3'-biotin on SEQ 1 strand.
Data set [2] deals with SP-1 (HeLa extract) (Homo sapiens) (UniProt P08047). In words: footprint. Particulars: protein in an extract; protein details: HeLa cell extract; label: 5'-ruthenium, 3'-biotin on SEQ 3 strand.

Where cells or extracts were used, other partners may take part. For part of these data: Construct, isoform or probe ends are uncertain for at least one entry.

Regarding “AGTTGAGGGGACTTTCCCAGGC (double strand) [NF-kB consensus substrate, all phosphodiester]”, the binding result in data set [1] (similar specificity, lower specific ECL signals) is reported as “binds”.
Turning to “AGTTGAGGGGACTTTCCCAGGC (double strand) [NF-kB consensus substrate, phosphorothioate]”, the binding result in data set [1] (PS within bracketed nucleotides AGTTGAGG (5') and CCCAGGC (3') of the labelled strand, specific ECL 744155, reduced to 0 by 100-fold unlabelled NF-kB consensus DNA) is given as “binds”.
In the case of “GATCGAACTGACCGCCCGCGGCCCGT (double strand) [SP-1 consensus substrate]”, the binding result in data set [2] is given as “binds”.
